Reference: article PMC5575334
No constants are given. Whether binding was seen depends on the method and setting. In cells and extracts the contact can be indirect. Some entries that bind do so weakly or less than the wild type.

The chains behind the UniProt entries cited, without tags or fusion partners. Where a name states a change or a piece, a line headed by the entry shows the natural chain unless it says otherwise. A line that says so, or that is headed by a name, gives the form on record, which may keep a tag or linker.
UniProt P60953: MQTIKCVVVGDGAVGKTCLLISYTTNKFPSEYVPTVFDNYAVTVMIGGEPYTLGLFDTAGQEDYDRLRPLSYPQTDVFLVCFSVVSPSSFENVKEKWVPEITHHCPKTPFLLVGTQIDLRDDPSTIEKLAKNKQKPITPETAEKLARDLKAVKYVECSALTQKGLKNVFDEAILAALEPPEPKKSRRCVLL
EGFP-tagged Cdc42-L61 (P60953, form named): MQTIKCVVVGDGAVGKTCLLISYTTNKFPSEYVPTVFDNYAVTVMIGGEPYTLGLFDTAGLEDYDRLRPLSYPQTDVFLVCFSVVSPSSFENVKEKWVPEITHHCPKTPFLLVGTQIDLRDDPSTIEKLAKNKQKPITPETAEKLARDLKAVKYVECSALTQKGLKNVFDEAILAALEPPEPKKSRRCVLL
UniProt A2APV2: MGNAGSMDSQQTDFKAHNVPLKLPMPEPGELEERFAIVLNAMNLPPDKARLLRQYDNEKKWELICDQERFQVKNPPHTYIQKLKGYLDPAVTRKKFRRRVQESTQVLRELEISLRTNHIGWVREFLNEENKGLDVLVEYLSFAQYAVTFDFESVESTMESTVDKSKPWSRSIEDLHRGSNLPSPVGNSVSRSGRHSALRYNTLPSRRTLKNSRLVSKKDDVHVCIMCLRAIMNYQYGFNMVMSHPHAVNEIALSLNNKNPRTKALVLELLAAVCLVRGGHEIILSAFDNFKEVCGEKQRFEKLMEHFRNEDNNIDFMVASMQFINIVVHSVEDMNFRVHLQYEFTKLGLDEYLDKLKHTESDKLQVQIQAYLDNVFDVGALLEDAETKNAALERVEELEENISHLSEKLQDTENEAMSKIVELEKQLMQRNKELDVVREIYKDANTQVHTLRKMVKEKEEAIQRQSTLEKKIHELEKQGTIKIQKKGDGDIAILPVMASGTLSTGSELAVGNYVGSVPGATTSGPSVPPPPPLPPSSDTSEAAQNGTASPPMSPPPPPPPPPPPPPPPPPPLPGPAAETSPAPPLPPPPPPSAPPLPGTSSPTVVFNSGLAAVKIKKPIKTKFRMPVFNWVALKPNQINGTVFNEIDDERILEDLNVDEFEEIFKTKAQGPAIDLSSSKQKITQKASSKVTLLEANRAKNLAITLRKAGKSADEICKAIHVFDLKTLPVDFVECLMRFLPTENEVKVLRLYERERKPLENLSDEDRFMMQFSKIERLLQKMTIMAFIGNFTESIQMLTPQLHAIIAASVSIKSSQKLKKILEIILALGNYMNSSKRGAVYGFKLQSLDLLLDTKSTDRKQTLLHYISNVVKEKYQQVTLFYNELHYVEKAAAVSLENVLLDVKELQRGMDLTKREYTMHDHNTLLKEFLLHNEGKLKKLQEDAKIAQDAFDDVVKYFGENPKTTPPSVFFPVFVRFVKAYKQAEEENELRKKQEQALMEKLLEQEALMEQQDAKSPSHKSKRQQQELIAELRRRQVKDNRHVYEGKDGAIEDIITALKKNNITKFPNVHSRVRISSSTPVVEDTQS

Molecular target: EGFP-tagged Cdc42-L61 (UniProt P60953)
Experiment: co-IP; GFP-Trap_A beads precipitate EGFP-tagged baits from lysates of transfected B16-F1 cells; IP-buffer (140 mM KCl, 50 mM Tris-HCl pH 7.4, 50 mM NaF, 10 mM Na4P2O7, 2 mM MgCl2, 1% Triton-X100), 1 h at 4 °C; endogenous proteins detected by Western blot

- binding: binds
Substance: endogenous FMNL2 (from UniProt A2APV2 1-1086)
